In publication PMC12607714 one finds binding data, which are given here for three substances.

Protein sequences, listed by entry. Tags and fused reporters are not part of them. Lines headed by an entry give the natural chain unless they say otherwise; changes in a name come on top.
UniProt A0A509APB6: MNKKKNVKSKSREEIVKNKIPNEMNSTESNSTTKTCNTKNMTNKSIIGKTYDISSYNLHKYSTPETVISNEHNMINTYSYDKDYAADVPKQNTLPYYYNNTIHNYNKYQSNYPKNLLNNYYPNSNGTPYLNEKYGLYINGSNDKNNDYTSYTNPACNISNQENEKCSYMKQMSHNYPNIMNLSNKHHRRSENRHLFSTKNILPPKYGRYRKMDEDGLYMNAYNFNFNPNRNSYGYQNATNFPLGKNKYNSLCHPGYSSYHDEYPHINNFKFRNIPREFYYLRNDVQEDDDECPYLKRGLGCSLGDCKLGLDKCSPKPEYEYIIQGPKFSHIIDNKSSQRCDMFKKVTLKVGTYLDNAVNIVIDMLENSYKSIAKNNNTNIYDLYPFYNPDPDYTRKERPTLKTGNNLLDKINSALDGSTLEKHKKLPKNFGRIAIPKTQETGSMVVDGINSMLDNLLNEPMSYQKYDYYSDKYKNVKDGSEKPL
UniProt A0A509AJI6: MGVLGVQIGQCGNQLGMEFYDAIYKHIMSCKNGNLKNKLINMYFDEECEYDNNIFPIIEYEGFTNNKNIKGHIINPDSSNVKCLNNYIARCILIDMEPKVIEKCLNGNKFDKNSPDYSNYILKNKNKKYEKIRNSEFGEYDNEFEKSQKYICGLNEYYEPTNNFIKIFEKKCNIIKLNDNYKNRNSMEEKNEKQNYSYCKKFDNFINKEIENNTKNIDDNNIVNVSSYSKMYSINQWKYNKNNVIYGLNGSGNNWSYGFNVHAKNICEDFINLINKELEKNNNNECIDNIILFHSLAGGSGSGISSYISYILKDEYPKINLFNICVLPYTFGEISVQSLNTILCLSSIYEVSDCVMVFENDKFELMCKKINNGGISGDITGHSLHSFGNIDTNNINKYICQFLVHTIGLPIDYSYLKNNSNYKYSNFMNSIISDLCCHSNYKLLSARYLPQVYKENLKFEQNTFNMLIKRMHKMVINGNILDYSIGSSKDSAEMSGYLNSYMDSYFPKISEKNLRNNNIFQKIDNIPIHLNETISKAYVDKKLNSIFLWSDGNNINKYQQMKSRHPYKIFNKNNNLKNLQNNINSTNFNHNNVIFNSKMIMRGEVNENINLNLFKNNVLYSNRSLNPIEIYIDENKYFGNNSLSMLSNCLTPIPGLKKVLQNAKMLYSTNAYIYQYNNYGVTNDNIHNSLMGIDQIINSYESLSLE

Results are given in words; binding and its absence hold for the method and conditions named. Binding seen in cells or lysates may run through a third protein. Binding calls can cover weak binding; strength is not graded here.

Assay [1] addresses Flag-tagged IMCp domain (K134-K228) of PbIMC1j (Plasmodium berghei). Kind of assay: co-IP; Flag-IMCp co-expressed with TubD-Myc-His or ISC1-Myc-His in HEK293T; lysate on Flag-conjugated beads (IgG-conjugated beads as control), overnight at 4°C, washes with PBS-T; blots with anti-Myc and anti-Flag.
In assay [2] the target is ISC1-Myc-His (P. berghei inner membrane suture protein 1, Myc-His-tagged) (Plasmodium berghei). Kind of assay: co-IP; reciprocal: Flag-IMCp co-expressed with TubD-Myc-His or ISC1-Myc-His in HEK293T; lysate on anti-Myc beads, overnight at 4°C, washes with PBS-T; blots with anti-Flag and anti-Myc.
For assay [3], the target named is TubD-Myc-His (P. berghei δ-tubulin, Myc-His-tagged) (Plasmodium berghei). The assay is described as above.

Consider “ISC1-Myc-His (P. berghei inner membrane suture protein 1, Myc-His-tagged) (from UniProt A0A509APB6)”, for which the binding entry in assay [1] was “binds”.
As for “Flag-tagged IMCp domain (K134-K228) of PbIMC1j (from UniProt A0A509AP25) (domain or fragment)”, the binding result in assay [2] and in assay [3] was “binds” throughout.
With “TubD-Myc-His (P. berghei δ-tubulin, Myc-His-tagged) (from UniProt A0A509AJI6)”, in assay [1], the binding entry is “binds”.
